Source: US20060148772A1, “Combination” (priority 2004, published 2006)
pIC50: −log10 of the molar value.

Experiments:
Assay type in all cases: cell-based
ZR75.1 (ER+,HER2+) = experiment: Proliferation assay, aromatase expressing ZR75.1 clones; conditions: Homo sapiens, ZR-75-1, 144 h, inhibition of proliferation, androstenedione, 6 days
Description: (§1) Human breast cancer cell lines with varying expression of ER and HER2 were engineered to express aromatase. The cell lines were MCF7 (ER+,HER2−), ZR75.1 (ER+,HER2+), BT474 (ER+, HER2++) and SKBR3 (ER−, HER2++).
(§2) Proliferation assays were carried out as follows. The target cell lines listed above were cultured in phenol red-free RPMI 1640 medium containing 10% charcoal stripped foetal calf serum and 10[…]g.ml insulin (DCC medium), with daily changes for 3 days. The cell lines were then seeded in to 12-well plates at an appropriate density (MCF7 1×10^4/well, ZR75.1 2×10^4/well, BT474 2×10^4/well, SKBR3 1×10^4/well). After 24-48 hours, the cell monolayers were treated with increasing concentrations of androstenedione or E2. […] Drug treatments were changed daily over a period of 6 days. Cell number was determined using a Z1 Coulter Counter (Beckman Coulter, UK). With the threshold set at 15 μm diameter, 75% the average 20 μm size of MCF7 cells.

MCF7 (ER+,HER2−) = experiment: Proliferation assay, aromatase expressing MCF7 clones; conditions: Homo sapiens, MCF7, 144 h, inhibition of proliferation, androstenedione, 6 days
Description: as §1, §2

BT474 (ER+, HER2++) = experiment: Proliferation assay, aromatase expressing BT474 clones; conditions: Homo sapiens, BT-474, 144 h, inhibition of proliferation, androstenedione, 6 days
Description: as §1, §2

pIC50 (MCF7 (ER+,HER2−)): 8.00
pIC50 (BT474 (ER+, HER2++)): 8.00
Structure (SMILES): CC/C(=C(\c1ccccc1)c1ccc(OCCN(C)C)cc1)c1ccccc1 [Tamoxifen]
pIC50 (ZR75.1 (ER+,HER2+)): 8.00
